The target of test [1] is B-cell lymphoma-2 (Bcl-2) (human (endogenous in PC-3)) (UniProt P10415). Description: co-IP; PC-3 cell lysate, IP with Beclin1 antibody or Bcl-2 antibody (5 ug antibody, 500 ug protein), protein A + G beads, Western blot; control cells, CEMIP-overexpressing cells, and CEMIP overexpression with PKCalpha knockdown. A general note: Immunoblotting shows a protein as a band on a membrane.

Chains of the proteins cited; added tags and fusions are not shown.
UniProt P10415: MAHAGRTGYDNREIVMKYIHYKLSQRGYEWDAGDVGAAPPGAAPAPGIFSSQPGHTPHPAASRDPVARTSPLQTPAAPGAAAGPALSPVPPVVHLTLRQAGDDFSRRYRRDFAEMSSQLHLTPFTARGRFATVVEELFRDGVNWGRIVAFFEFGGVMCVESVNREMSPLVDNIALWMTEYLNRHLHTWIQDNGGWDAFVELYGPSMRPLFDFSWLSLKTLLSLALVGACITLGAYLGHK
UniProt Q14457: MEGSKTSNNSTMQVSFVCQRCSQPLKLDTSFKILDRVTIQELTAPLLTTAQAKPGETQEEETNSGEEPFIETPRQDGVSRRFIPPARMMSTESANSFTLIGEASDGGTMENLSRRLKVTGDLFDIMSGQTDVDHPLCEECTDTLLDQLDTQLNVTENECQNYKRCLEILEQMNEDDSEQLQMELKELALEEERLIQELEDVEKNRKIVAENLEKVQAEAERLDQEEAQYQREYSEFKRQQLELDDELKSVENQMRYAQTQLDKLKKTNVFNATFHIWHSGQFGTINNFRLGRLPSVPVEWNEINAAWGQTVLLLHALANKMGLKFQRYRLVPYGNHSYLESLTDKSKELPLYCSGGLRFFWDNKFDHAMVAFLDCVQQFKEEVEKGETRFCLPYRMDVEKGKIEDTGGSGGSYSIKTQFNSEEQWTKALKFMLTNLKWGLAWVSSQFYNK

Test [2] addresses Beclin1 (human (endogenous in PC-3)) (UniProt Q14457). Described as above.

Among the data in publication PMC8748688 are binding values, retold here.

No constants are given. Whether binding was seen depends on the method and setting. Binding seen in cells or lysates may run through a third protein. Some binding calls cover weakened binding; strength is not graded here.

On to Beclin1 (from UniProt Q14457 1-450), for which the binding entry in test [1] was “binds”.

Regarding “B-cell lymphoma-2 (Bcl-2) (from UniProt P10415 1-239)”, in test [2], the binding result is on record as “binds”.
